{"source": "paper PMC12648443", "about": "“Modifications of NU-9, a potent protein aggregation inhibitor. Properties and activity in a cellular model of amyotrophic lateral sclerosis” (Bioorganic chemistry, 2025)", "key": {"in vitro": {"test": "in vitro", "details": "pig, PAMPA, pH 7.5"}, "[1]": {"details": "pig, PAMPA, pH 7.5"}}}
{"smiles": "Nc1nc2ccc(OC(F)(F)F)cc2s1", "note": "[Riluzole, riluzole, reference compound]", "values": [{"measurement": "Papp", "setting": "in vitro", "result": "33.7 ± 0.96", "unit": "×10⁻⁶ cm/s"}, {"measurement": "Log Pe", "setting": "[1]", "result": "−4.47"}]}
